The values that follow come from US20240301000A1 (SHENZHEN WINKEY TECHNOLOGY CO., LTD, priority 2021, published 2024).

Strings that start with PEPTIDE1 are HELM notation: dots part the residues, brackets hold end groups and non-standard residues.

A short description of this data set: general procedure: Fmoc solid-phase peptide synthesis; 2-Cl-Trt resin (cross-linking degree 1%, substitution degree 1.24 mmol/g); DIC/HOBt. The settings on record: whole synthesis.
Consider “PEPTIDE1{[KA-CO].[Pro].[Lys].[Glu].[Lys]}$$$$V2.0”, for which the “crude purity (method not given)” value was 83.5% and the “final purity (method not given)” value worked out at 97.34%.
For “PEPTIDE1{[NA].[Pro].[Lys].[Glu].[Lys]}$$$$V2.0”, in that order: 85% and 97.97%.
In the same order, the values of TXC-Pro-Lys-Glu-Lys-OH are 87% and 96.50%.
